These are yes or no findings as the source states them, for the method shown. In cells and extracts the contact can be indirect. Some entries that bind do so weakly or less than the wild type. Where a sequence is shown, tags or fusion partners need not be part of it.
Biological target: T1, Immediate early response gene 3 protein (IER3), Flag-tagged, expressed in Huh7 cells (human) (UniProt P46695)
T1 sequence: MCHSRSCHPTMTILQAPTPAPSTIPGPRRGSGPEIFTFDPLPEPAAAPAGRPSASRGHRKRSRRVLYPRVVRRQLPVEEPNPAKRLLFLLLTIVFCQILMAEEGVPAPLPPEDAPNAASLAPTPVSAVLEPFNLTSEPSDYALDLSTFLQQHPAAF
Assay: co-IP; Huh7 cells co-transfected with Myc-TRAIL and Flag-IER3; RIPA lysates; IP with IER3- or Flag-antibody beads, reverse IP with anti-Myc or anti-TRAIL; 12 h at 4 °C; Western blot

The chains behind the UniProt entries cited, without tags or fusion partners.
UniProt P50591: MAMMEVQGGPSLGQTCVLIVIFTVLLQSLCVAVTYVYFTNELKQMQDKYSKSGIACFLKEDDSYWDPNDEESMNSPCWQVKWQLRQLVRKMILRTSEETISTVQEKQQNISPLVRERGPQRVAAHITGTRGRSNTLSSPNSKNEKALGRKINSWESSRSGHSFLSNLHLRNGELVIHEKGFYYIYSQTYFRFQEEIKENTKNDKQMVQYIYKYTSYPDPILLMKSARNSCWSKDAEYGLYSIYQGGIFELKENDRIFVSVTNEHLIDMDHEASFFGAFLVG

binding: binds
Substance: Tumor necrosis factor-related apoptosis-inducing ligand (TRAIL), Myc-tagged (from UniProt P50591 1-281)

— paper PMC7816514
